Results from publication PMC10828586.
No constants are given. Whether binding was seen depends on the method and setting. Binding seen in cells or lysates may run through a third protein. Some entries that bind do so weakly or less than the wild type.

By UniProt entry, the sequences of proteins in these tests, tags left out.
UniProt Q9DBL9: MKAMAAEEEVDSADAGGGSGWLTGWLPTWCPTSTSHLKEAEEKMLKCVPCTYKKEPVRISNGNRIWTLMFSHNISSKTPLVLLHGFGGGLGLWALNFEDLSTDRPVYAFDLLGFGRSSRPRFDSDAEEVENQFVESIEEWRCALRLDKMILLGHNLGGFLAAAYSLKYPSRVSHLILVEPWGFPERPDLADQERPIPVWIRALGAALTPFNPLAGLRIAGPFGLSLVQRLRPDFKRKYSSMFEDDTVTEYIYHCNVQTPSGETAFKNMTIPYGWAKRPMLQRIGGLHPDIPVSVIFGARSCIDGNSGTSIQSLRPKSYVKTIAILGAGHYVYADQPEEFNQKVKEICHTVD

Target: FLAG-mCGI-58 (mouse) (UniProt Q9DBL9)
Experiment: co-IP; HEK293T cotransfected with FLAG-mCGI-58 and Xpress-mATGL variants; lysis in 50 mM Tris-HCl pH 7.4, 150 mM NaCl, 1% NP-40, 1 mM EDTA; 2 mg lysate on Anti-FLAG M2 affinity gel, 4°C, 3 h; immunoblot with anti-Xpress and anti-FLAG

| binding | Binder |
| --- | --- |
| binds | Xpress-mATGL288, WT (truncated after residue 288) (domain or fragment, UniProt Q8BJ56 1-288) MFPRETKWNISFAGCGFLGVYHIGVASCLREHAPFLVANATHIYGASAGALTATALVTGACLGEAGANIIEVSKEARKRFLGPLHPSFNLVKTIRGCLLKTLPADCHERANGRLGISLTRVSDGENVIISHFSSKDELIQANVCSTFIPVYCGLIPPTLQGVRYVDGGISDNLPLYELKNTITVSPFSGESDICPQDSSTNIHELRVTNTSIQFNLRNLYRLSKALFPPEPMVLREMCKQGYRDGLRFLRRNGLLNQPNPLLALPPVVPQEEDAEEAAVVEERAGEED |
| binds | Xpress-mATGL288 N209A/I212A/N215A (domain or fragment, UniProt Q8BJ56 1-288) MFPRETKWNISFAGCGFLGVYHIGVASCLREHAPFLVANATHIYGASAGALTATALVTGACLGEAGANIIEVSKEARKRFLGPLHPSFNLVKTIRGCLLKTLPADCHERANGRLGISLTRVSDGENVIISHFSSKDELIQANVCSTFIPVYCGLIPPTLQGVRYVDGGISDNLPLYELKNTITVSPFSGESDICPQDSSTNIHELRVTATSAQFALRNLYRLSKALFPPEPMVLREMCKQGYRDGLRFLRRNGLLNQPNPLLALPPVVPQEEDAEEAAVVEERAGEED |
| binds | Xpress-mATGL, full-length, N209A/N215A (protein, UniProt Q8BJ56 1-486) MFPRETKWNISFAGCGFLGVYHIGVASCLREHAPFLVANATHIYGASAGALTATALVTGACLGEAGANIIEVSKEARKRFLGPLHPSFNLVKTIRGCLLKTLPADCHERANGRLGISLTRVSDGENVIISHFSSKDELIQANVCSTFIPVYCGLIPPTLQGVRYVDGGISDNLPLYELKNTITVSPFSGESDICPQDSSTNIHELRVTATSIQFALRNLYRLSKALFPPEPMVLREMCKQGYRDGLRFLRRNGLLNQPNPLLALPPVVPQEEDAEEAAVVEERAGEEDQLQPYRKDRILEHLPARLNEALLEACVEPKDLMTTLSNMLPVRLATAMMVPYTLPLESAVSFTIRLLEWLPDVPEDIRWMKEQTGSICQYLVMRAKRKLGDHLPSRLSEQVELRRAQSLPSVPLSCATYSEALPNWVRNNLSLGDALAKWEECQRQLLLGLFCTNVAFPPDALRMRAPASPTAADPATPQDPPGLPPC |
| binds | Xpress-mATGL, full-length, I212A (protein, UniProt Q8BJ56 1-486) MFPRETKWNISFAGCGFLGVYHIGVASCLREHAPFLVANATHIYGASAGALTATALVTGACLGEAGANIIEVSKEARKRFLGPLHPSFNLVKTIRGCLLKTLPADCHERANGRLGISLTRVSDGENVIISHFSSKDELIQANVCSTFIPVYCGLIPPTLQGVRYVDGGISDNLPLYELKNTITVSPFSGESDICPQDSSTNIHELRVTNTSAQFNLRNLYRLSKALFPPEPMVLREMCKQGYRDGLRFLRRNGLLNQPNPLLALPPVVPQEEDAEEAAVVEERAGEEDQLQPYRKDRILEHLPARLNEALLEACVEPKDLMTTLSNMLPVRLATAMMVPYTLPLESAVSFTIRLLEWLPDVPEDIRWMKEQTGSICQYLVMRAKRKLGDHLPSRLSEQVELRRAQSLPSVPLSCATYSEALPNWVRNNLSLGDALAKWEECQRQLLLGLFCTNVAFPPDALRMRAPASPTAADPATPQDPPGLPPC |
| binds | Xpress-mATGL, full-length, N215A (protein, UniProt Q8BJ56 1-486) MFPRETKWNISFAGCGFLGVYHIGVASCLREHAPFLVANATHIYGASAGALTATALVTGACLGEAGANIIEVSKEARKRFLGPLHPSFNLVKTIRGCLLKTLPADCHERANGRLGISLTRVSDGENVIISHFSSKDELIQANVCSTFIPVYCGLIPPTLQGVRYVDGGISDNLPLYELKNTITVSPFSGESDICPQDSSTNIHELRVTNTSIQFALRNLYRLSKALFPPEPMVLREMCKQGYRDGLRFLRRNGLLNQPNPLLALPPVVPQEEDAEEAAVVEERAGEEDQLQPYRKDRILEHLPARLNEALLEACVEPKDLMTTLSNMLPVRLATAMMVPYTLPLESAVSFTIRLLEWLPDVPEDIRWMKEQTGSICQYLVMRAKRKLGDHLPSRLSEQVELRRAQSLPSVPLSCATYSEALPNWVRNNLSLGDALAKWEECQRQLLLGLFCTNVAFPPDALRMRAPASPTAADPATPQDPPGLPPC |
| binds | Xpress-mATGL, full-length, N209A/I212A/N215A (protein, UniProt Q8BJ56 1-486) MFPRETKWNISFAGCGFLGVYHIGVASCLREHAPFLVANATHIYGASAGALTATALVTGACLGEAGANIIEVSKEARKRFLGPLHPSFNLVKTIRGCLLKTLPADCHERANGRLGISLTRVSDGENVIISHFSSKDELIQANVCSTFIPVYCGLIPPTLQGVRYVDGGISDNLPLYELKNTITVSPFSGESDICPQDSSTNIHELRVTATSAQFALRNLYRLSKALFPPEPMVLREMCKQGYRDGLRFLRRNGLLNQPNPLLALPPVVPQEEDAEEAAVVEERAGEEDQLQPYRKDRILEHLPARLNEALLEACVEPKDLMTTLSNMLPVRLATAMMVPYTLPLESAVSFTIRLLEWLPDVPEDIRWMKEQTGSICQYLVMRAKRKLGDHLPSRLSEQVELRRAQSLPSVPLSCATYSEALPNWVRNNLSLGDALAKWEECQRQLLLGLFCTNVAFPPDALRMRAPASPTAADPATPQDPPGLPPC |
| binds | Xpress-mATGL, full-length, N209A (protein, UniProt Q8BJ56 1-486) MFPRETKWNISFAGCGFLGVYHIGVASCLREHAPFLVANATHIYGASAGALTATALVTGACLGEAGANIIEVSKEARKRFLGPLHPSFNLVKTIRGCLLKTLPADCHERANGRLGISLTRVSDGENVIISHFSSKDELIQANVCSTFIPVYCGLIPPTLQGVRYVDGGISDNLPLYELKNTITVSPFSGESDICPQDSSTNIHELRVTATSIQFNLRNLYRLSKALFPPEPMVLREMCKQGYRDGLRFLRRNGLLNQPNPLLALPPVVPQEEDAEEAAVVEERAGEEDQLQPYRKDRILEHLPARLNEALLEACVEPKDLMTTLSNMLPVRLATAMMVPYTLPLESAVSFTIRLLEWLPDVPEDIRWMKEQTGSICQYLVMRAKRKLGDHLPSRLSEQVELRRAQSLPSVPLSCATYSEALPNWVRNNLSLGDALAKWEECQRQLLLGLFCTNVAFPPDALRMRAPASPTAADPATPQDPPGLPPC |
